Assay results published in paper doi:10.1101/2021.10.01.462734.
No constants are given. Whether binding was seen depends on the method and setting. Some binding calls cover weakened binding; strength is not graded here. Where a sequence is shown, tags or fusion partners need not be part of it.

Legend:
[1] = biological target: T1, GFP-labeled mouse glucocorticoid receptor, wild type (mouse), P06537; experiment: number and brightness; conditions: remark: other sources report otherwise
T1 chain: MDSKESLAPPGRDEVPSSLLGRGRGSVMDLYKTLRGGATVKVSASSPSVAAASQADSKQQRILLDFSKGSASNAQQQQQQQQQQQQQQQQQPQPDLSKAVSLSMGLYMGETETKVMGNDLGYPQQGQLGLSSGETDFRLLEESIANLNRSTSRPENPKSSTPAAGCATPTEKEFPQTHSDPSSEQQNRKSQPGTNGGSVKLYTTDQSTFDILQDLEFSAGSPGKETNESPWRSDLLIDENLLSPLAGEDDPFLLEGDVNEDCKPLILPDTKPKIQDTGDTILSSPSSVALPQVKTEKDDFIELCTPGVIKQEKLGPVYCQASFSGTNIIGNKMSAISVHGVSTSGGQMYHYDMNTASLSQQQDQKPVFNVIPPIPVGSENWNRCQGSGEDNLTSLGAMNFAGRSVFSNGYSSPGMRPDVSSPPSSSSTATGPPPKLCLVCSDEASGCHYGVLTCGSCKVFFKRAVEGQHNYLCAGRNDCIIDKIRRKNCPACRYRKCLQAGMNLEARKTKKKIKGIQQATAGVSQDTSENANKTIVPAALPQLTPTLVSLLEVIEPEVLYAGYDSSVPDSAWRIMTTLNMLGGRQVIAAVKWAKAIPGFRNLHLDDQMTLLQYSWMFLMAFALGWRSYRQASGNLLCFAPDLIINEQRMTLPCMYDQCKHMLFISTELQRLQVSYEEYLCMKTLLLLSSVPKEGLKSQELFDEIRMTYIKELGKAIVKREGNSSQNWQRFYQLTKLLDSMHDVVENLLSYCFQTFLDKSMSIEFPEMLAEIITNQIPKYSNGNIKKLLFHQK

[2] = biological target: T1, GFP-labeled mouse glucocorticoid …; experiment: number and brightness; conditions: remark: other sources report otherwise

B1: GFP-labeled mouse glucocorticoid receptor, wild type, P06537 1-792 (protein)
chain: MDSKESLAPPGRDEVPSSLLGRGRGSVMDLYKTLRGGATVKVSASSPSVAAASQADSKQQRILLDFSKGSASNAQQQQQQQQQQQQQQQQQPQPDLSKAVSLSMGLYMGETETKVMGNDLGYPQQGQLGLSSGETDFRLLEESIANLNRSTSRPENPKSSTPAAGCATPTEKEFPQTHSDPSSEQQNRKSQPGTNGGSVKLYTTDQSTFDILQDLEFSAGSPGKETNESPWRSDLLIDENLLSPLAGEDDPFLLEGDVNEDCKPLILPDTKPKIQDTGDTILSSPSSVALPQVKTEKDDFIELCTPGVIKQEKLGPVYCQASFSGTNIIGNKMSAISVHGVSTSGGQMYHYDMNTASLSQQQDQKPVFNVIPPIPVGSENWNRCQGSGEDNLTSLGAMNFAGRSVFSNGYSSPGMRPDVSSPPSSSSTATGPPPKLCLVCSDEASGCHYGVLTCGSCKVFFKRAVEGQHNYLCAGRNDCIIDKIRRKNCPACRYRKCLQAGMNLEARKTKKKIKGIQQATAGVSQDTSENANKTIVPAALPQLTPTLVSLLEVIEPEVLYAGYDSSVPDSAWRIMTTLNMLGGRQVIAAVKWAKAIPGFRNLHLDDQMTLLQYSWMFLMAFALGWRSYRQASGNLLCFAPDLIINEQRMTLPCMYDQCKHMLFISTELQRLQVSYEEYLCMKTLLLLSSVPKEGLKSQELFDEIRMTYIKELGKAIVKREGNSSQNWQRFYQLTKLLDSMHDVVENLLSYCFQTFLDKSMSIEFPEMLAEIITNQIPKYSNGNIKKLLFHQK
B1 was tested, and the binding [1] was “binds” and the binding [2] was “binds”.
